Measurements reported in patent US20230391872A1 (ANAPTYSBIO, published 2023).
These are yes or no findings as the source states them, for the method shown. Some binding calls cover weakened binding; strength is not graded here.

How the values were obtained:
[1] = molecular target: cynomolgus monkey BTLA on cells (stably transfected 293c18 clone 1G5; cynomolgus peripheral blood T and B cells) (cynomolgus monkey); experiment: flow cytometry on cynomolgus monkey T and B cells
[2] = molecular target: cynomolgus monkey BTLA on cells (stably transfected 293c18 clone 1G5; cynomolgus peripheral blood T and B cells) (cynomolgus monkey); experiment: flow cytometry on cynomolgus monkey whole blood
[3] = molecular target: cynomolgus monkey BTLA on cells (stably transfected 293c18 clone 1G5; cynomolgus peripheral blood T and B cells) (cynomolgus monkey); experiment: flow cytometry on 293c18 cells expressing cynomolgus monkey BTLA
[4] = molecular target: cynomolgus monkey BTLA on cells (stably transfected 293c18 clone 1G5; cynomolgus peripheral blood T and B cells) (cynomolgus monkey); experiment: flow cytometry, AF647-labeled 6G3 IgG4 on cynomolgus monkey whole blood, CD3+ T cells and CD20+ B cells
[5] = molecular target: cynomolgus monkey BTLA on cells (stably transfected 293c18 clone 1G5; cynomolgus peripheral blood T and B cells) (cynomolgus monkey); experiment: flow cytometry (mean fluorescence intensity) on CD3+ T cells of lysed cynomolgus monkey whole blood
[6] = molecular target: cynomolgus monkey BTLA on cells (stably transfected 293c18 clone 1G5; cynomolgus peripheral blood T and B cells) (cynomolgus monkey); experiment: flow cytometry (mean fluorescence intensity) on CD20+ B cells of lysed cynomolgus monkey whole blood
[7] = molecular target: cynomolgus monkey BTLA on cells (stably transfected 293c18 clone 1G5; cynomolgus peripheral blood T and B cells) (cynomolgus monkey); experiment: receptor occupancy in dosed cynomolgus monkeys (10, 50, 100 mg/kg SC, 100 mg/kg IV weekly), flow cytometry of free BTLA with labelled 6G3 IgG4-DyL488 on blood T and B cells [left panels (Receptor Occupancy]

binding [1]	binding [2]	binding [3]	binding [4]	binding [5]	binding [6]	binding [7]	Binder
binds	–	–	–	–	–	–	Anti-BTLA clone 10D8 (APE10134) (antibody, V domains shown) VH: QVQLVQSGAEVKKPGASVKVSCKASGYTLTDYTIHWVRQAPGQRLEWMGWIYPGSGNTKYNDKFKVRVTITRDTSASTAYMELSSLRSEDTAVYYCARRNYYAMEYWGQGTTVTVSS VL: DIVMTQSPDSLAVSLGERATINCKASQNVFTNVAWYQQKPGQSPKPLIYSASYRYSGVPDRFSGSGSGTDFTLTISSLQAEDVAVYYCQQYSTYPYTFGQGTKLEIKR
–	binds	binds	binds	binds	binds	binds	6G3 IgG4 anti-BTLA antibody (APE10840 / APE12839 / APE13308) (antibody, V domains shown, Humanized antibody from a mouse hybridoma, tested as human IgG4 (detected with anti-human kappa); Some assays used labelled lots (DyLight 650, AF647, biotin, DyL488); also called 6G3 antibody; APE10840.03) VH: QVQLVQSGAEVKKPGSSVKVSCKASGYVFSTSWMNWVRQAPGQGLEWMGRIYPGDADTNYVGKFKGRVTITADKSTTTAYMELSSLRSEDTAVYFCAKSGTFNFGNYRWYFDVWGKGTTVTVSS VL: AIQLTQSPSSLSASVGDRVTITCRVSENIYSHLAWYQQKPGKAPKLLIYAATNLALGVPSRFSGSGSGTDYTLTISSLQPEDFATYYCQLFWGPPLTFGGGTKVEIKR
